Tested on: S. aureus
Test: Serum shift assays (MIC with and without 50% human serum)
Assay type: cell-based, Staphylococcus aureus
Settings: 50% human serum vs no serum
Protocol: Serum shift assays: To assess the role of protein binding on compound susceptibility, MIC determinations were performed in triplicate in the presence and absence of 50% human serum. Serial threefold dilutions of 2× compound were generated in MHB and aliquoted onto 96 well plates with a DMSO limit of 0.5%. Bacteria were adjusted to 1*10^8 CFUs/mL in MHB, then further diluted 1:100 in MHB and 100% heat deactivated filter sterilized pooled human serum. Fifty microliters were added to each well of the corresponding plates, and the plates were incubated at 37° C. for ˜20 h. The lowest concentration causing ≥90% growth inhibition was recorded as the MIC.

| SMILES | Avg Fold-shift of MIC |
| --- | --- |
| CO[C@@H]1[C@@H](OC(N)=O)[C@@H](O)[C@H](Oc2ccc3c(O)c(NC(=O)c4ccc(O)c(CC=C(C)C)c4)c(=O)oc3c2C)OC1(C)C [NOV, novobiocin] | 158.6 |
| CN[C@H](CC(C)C)C(=O)N[C@H]1C(=O)N[C@@H](CC(N)=O)C(=O)N[C@H]2C(=O)N[C@H]3C(=O)N[C@H](C(=O)N[C@H](C(=O)O)c4cc(O)cc(O)c4-c4cc3ccc4O)[C@H](O)c3ccc(c(Cl)c3)Oc3cc2cc(c3O[C@@H]2O[C@H](CO)[C@@H](O)[C@H](O)[C@H]2O[C@H]2C[C@](C)(N)[C@H](O)[C@H](C)O2)Oc2ccc(cc2Cl)[C@H]1O [VAN, vancomycin] | 1.7 |
